# Data reported in the supplement of paper PMC3334620.
# In all, about 33,000 sequences were measured (“E-score (-0.5 to 0.5)”: median about -0.0014, highest 2% from about 0.25 on). The list shows a part of the results.
# Target: T1, Cad1 (UniProt P24813)
# T1 sequence: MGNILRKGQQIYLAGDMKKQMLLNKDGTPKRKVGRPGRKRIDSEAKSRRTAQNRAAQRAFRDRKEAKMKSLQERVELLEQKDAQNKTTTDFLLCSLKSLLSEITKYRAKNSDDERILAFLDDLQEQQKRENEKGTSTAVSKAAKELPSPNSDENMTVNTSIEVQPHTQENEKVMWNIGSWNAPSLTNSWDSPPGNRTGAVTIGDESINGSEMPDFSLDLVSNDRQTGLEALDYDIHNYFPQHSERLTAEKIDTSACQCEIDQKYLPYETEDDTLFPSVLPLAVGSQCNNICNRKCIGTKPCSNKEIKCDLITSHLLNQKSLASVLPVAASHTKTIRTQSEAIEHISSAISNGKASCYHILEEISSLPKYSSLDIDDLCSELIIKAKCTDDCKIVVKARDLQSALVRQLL
# Experiment: PBM E-score (8-mer binding enrichment) (E-score (-0.5 to 0.5)); higher = stronger / more preferred TF binding
# Details: protein concentration: 100 nM; construct: GST-full length
# How it was run: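 Each ungapped eight-base word and its reverse complement, pooled, received an E-score from the Universal PBM Analysis Suite. Underlying scans, normalised with masliner, recorded fluorescent anti-GST bound to GST-tagged yeast transcription factors. These were applied at about 100-200 nM to universal all-10-mer Agilent arrays double-stranded by primer extension.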
row,Sequence,PBM E-score
1,CCTAAAGC,-0.12
2,ATGAAATA,0.213
3,GGGTAGAA,-0.0534
4,ACCCAACG,-0.033
5,ATCCATAC,0.0456
6,GGGAGTAC,-0.141
7,GCAGGCCC,-0.291
8,CTTCAACC,0.112
9,ATATGGAC,0.0863
10,CCCATTCC,-0.265
11,AAACTCCC,0.026
12,AAGATTAG,0.144
13,CAACTGGG,-0.345
14,GATCCCCA,-0.0705
15,CGAATCTA,0.013
16,CCCTGTTC,-0.141
17,TGGCAGAA,0.0508
18,GTTGCATA,0.0592
19,CTTCCAAG,-0.122
20,ATCTCGCG,0.256
21,GAGCACAC,-0.193
22,ACTGTTTA,-0.0208
23,AGTCTCAG,-0.0604
24,ATCTACTA,0.0659
25,AAGCCATG,-0.0925

# Exported bar-delimited: part of the list above.
row | Sequence | PBM E-score
15 | CGAATCTA | 0.013
16 | CCCTGTTC | -0.141
17 | TGGCAGAA | 0.0508
18 | GTTGCATA | 0.0592

# Additional entries:

row,Sequence,PBM E-score
1,ATGTTAAC,0.0833
2,CCAATCGA,0.105
3,GATACTTA,0.00706
4,AACATAAG,0.261
5,CACTCAGG,-0.0655
6,AACCCACC,0.0212
7,AGCAGCTA,0.147
8,GACACCGA,-0.104
9,GTCGATCA,0.0162
10,GGTTTCAA,0.0476
11,GCCCGGTA,-0.174
12,ACTTTCTC,-0.114
13,AATGCATG,0.254
14,CGGACTGC,0.1
15,ATTGAGCG,0.0304
16,CGTAAATA,0.137
17,ATTTTCCG,0.304
18,ATTCGTTA,0.158
19,AATCTTGA,-0.0311
20,GCCCCCTA,-0.241
21,AGATCGAG,0.0408
22,GCTGCCCC,-0.107
23,ACCCATAA,0.0378
24,AGGCATGG,-0.135
25,CAGTTAAC,0.031

row,Sequence,PBM E-score
1,GGGGTCAA,-0.115
2,AAACGAGA,0.0152
3,AATGCTTA,0.177
4,CGCCCGCA,0.0435
5,CACGCTAA,0.0356
6,AGTGCCTG,-0.153
7,GGAAGTCA,-0.0654
8,AGCATGCC,-0.111
9,ACTAAACA,0.162
10,CGTCATTA,-0.022
11,AACCAACA,0.0201
12,CGTTTATC,0.186
13,ATCATCCC,0.0336
14,GTCAACCA,-0.161
15,ATGACGAC,0.0161
16,ACCACGCG,0.0948
17,ATAGTGGG,-0.068
18,CGTGGCAG,0.0276
19,GTTAGGGA,0.0091
20,CGCGTGGA,-0.00085
21,GCCTAGGC,-0.0941
22,CCTGGCTC,-0.0638
23,ACGTCTAG,0.139
24,AGTGACCG,-0.0545
25,ACCGTGGA,-0.0656

# Reformatted tab-delimited: entries from further up.
row	Sequence	PBM E-score
2	AAACGAGA	0.0152
3	AATGCTTA	0.177
4	CGCCCGCA	0.0435
5	CACGCTAA	0.0356
6	AGTGCCTG	-0.153
7	GGAAGTCA	-0.0654

# More results.

row,Sequence,PBM E-score
1,CAGTAAGA,0.194
2,CCGACGAA,0.119
3,ACTCACGG,0.0453
4,AGTGGTGC,-0.0984
5,GCCTGACC,-0.0845
6,AGGTGAGC,-0.141
7,ACCCCCTG,-0.395
8,GACCATGC,-0.0791
9,GTAATGGA,0.196
10,CCGATACG,-0.177
11,ACTCCTGG,-0.167
12,CCGTCAGG,-0.117
13,AAGACTTC,-0.169
14,AGCCTGCC,-0.116
15,GGCGCCGA,0.0572
16,AACGAACA,0.269
17,GAGACCGA,-0.00291
18,CAACGTCA,0.035
19,TCCAAAAA,0.0686
20,CACGTTCG,-0.0797
21,CTAGGAGA,-0.23
22,AACCGCGT,0.122
23,GTACTTAA,-0.0799
24,CACAGGTC,-0.128
25,ATAGGCCG,-0.154

row,Sequence,PBM E-score
1,ATACAAAC,0.166
2,CACGTAGC,-0.271
3,CATGAACC,0.0271
4,CGTTGCCC,-0.106
5,GAATTGGA,0.0649
6,CCCCTAAG,-0.244
7,TGACTCCA,-0.349
8,TTAATAAA,0.389
9,AAGAGGTC,-0.138
10,GCCGTTAA,0.107
11,ACAGCCTA,0.0267
12,ATCAACTG,0.0477
13,CAGGAGAC,0.0859
14,GCATCCTA,-0.16
15,ACATAGCG,-0.017
16,CTTTGCAC,0.0899
17,ACCGCACG,0.0441
18,ACTCGCAC,0.0553
19,ATATAGTG,0.22
20,GAAGAGCC,-0.0377
21,AGTCCGTA,-0.016
22,CCCCTATC,-0.224
23,AGGTCATC,-0.0889
24,GCCCCAAC,0.117
25,CCCGTCGG,-0.117

row,Sequence,PBM E-score
1,CAATTGCG,0.0777
2,GTTCACTA,0.14
3,AATGTTCC,0.113
4,CTCGTTCA,0.0713
5,TCAAGTAA,0.0378
6,CTTAAATC,0.0641
7,GCGTTCAA,0.119
8,ATAAGCCG,0.109
9,ATTTGTGG,0.143
10,ACAATTAT,0.267
11,ACCAGACT,0.071
12,ACGAAGTG,-0.067
13,CCAGTTAC,-0.382
14,ATCCCAGG,-0.156
15,CCTAAAAA,-0.0353
16,TGGCAAAA,0.148
17,CCGGGTCC,-0.17
18,TAATACAA,0.219
19,AATTTAGA,0.0808
20,GATTATTA,0.2
21,AAGATTAT,0.104
22,TCCCTTAA,-0.209
23,GTTGCAGA,-0.0187
24,TTCTACAA,-0.00494
25,AAATATGC,0.069

row,Sequence,PBM E-score
1,GAATGGAC,-0.0285
2,CCGTATTA,0.0842
3,TAGGTATA,0.119
4,GGTGGCTA,-0.00533
5,TCCGCCCA,-0.0481
6,AAATCCCA,-0.0234
7,CCAACCGC,-0.0303
8,AGTATCTA,0.0971
9,CCTTAGGC,-0.27
10,AGTGTGCG,-0.0172
11,ATTCGTCA,0.197
12,ACCCTGAC,-0.12
13,GGATCTGA,-0.0154
14,CAATGGGA,0.0702
15,ATGGTATC,0.165
16,GTTATTGA,0.159
17,ATGGTGTC,0.00316
18,ACGATTCC,0.0765
19,GGGAAGTA,0.0404
20,TCCCCGAA,-0.144
21,GGTCCTAA,-0.00787
22,CGCCTAGA,-0.217
